# Measured values as given in the supplement of paper PMC10470496.
# Where a name gives a salt, the structure may show the parent alone. The list shows a part of the results. Single values are uncertain, as repeats are few or missing.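 The three strains are clinical Candida auris isolates from the CDC resistance isolate bank, from clades III, IV and I, grown in RPMI-1640 at 35°C. Growth is background-corrected OD600 relative to vehicle-only wells on the same plate; a hit meant over 50% inhibition in at least two strains plus a plate-corrected B-score above 0.1.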
# Columns and labels:
# Assay in all cases: growth relative to vehicle control (OD600 ratio) (fraction); higher = less inhibition
# Conditions in all cases: 24 h
# C. auris AR-384 = system: C. auris AR-384
# C. auris AR-386 = system: C. auris AR-386
# C. auris AR-387 = system: C. auris AR-387
SMILES,growth (C. auris AR-384; 1 µM),growth (C. auris AR-384; 10 µM),growth (C. auris AR-386; 1 µM),growth (C. auris AR-386; 10 µM),growth (C. auris AR-387; 1 µM),growth (C. auris AR-387; 10 µM)
C=C[C@]1(C)C[C@@H](OC(=O)CSC(C)(C)CNC(=O)[C@H](N)C(C)C)[C@]2(C)[C@H](C)CC[C@]3(CCC(=O)[C@H]32)[C@@H](C)[C@@H]1O [Valnemulin HCl],1.04,1.08,1.14,1.25,1.32,1.29
CCCCCCCCCC(=O)N[C@H]1[C@H](Oc2c3cc4cc2Oc2ccc(cc2Cl)[C@@H](O[C@@H]2O[C@H](CO)[C@@H](O)[C@H](O)[C@H]2NC(C)=O)[C@@H]2NC(=O)[C@H](NC(=O)[C@@H]4NC(=O)[C@H]4NC(=O)[C@@H](Cc5ccc(c(Cl)c5)O3)NC(=O)[C@H](N)c3ccc(O)c(c3)Oc3cc(O)cc4c3)c3ccc(O)c(c3)-c3c(OC4O[C@H](CO)[C@@H](O)[C@H](O)[C@@H]4O)cc(O)cc3[C@@H](C(=O)O)NC2=O)O[C@H](CO)[C@@H](O)[C@@H]1O (stereo partly specified) [Teicoplanin],0.85,0.44,0.89,0.92,0.83,0.83
CC(=O)OCC(=O)[C@@]1(O)CC[C@H]2[C@@H]3CCC4=CC(=O)CC[C@]4(C)[C@@]3(F)[C@@H](O)C[C@@]21C [Fludrocortisone acetate],1,0.77,1.09,0.76,0.87,0.83
OCCOCCN1CCN(C2=Nc3ccccc3Sc3ccccc32)CC1 [Quetiapine Fumarate],0.89,0.88,0.78,0.6,0.7,0.87
CCN[C@H]1C[C@H](C)S(=O)(=O)c2sc(S(N)(=O)=O)cc21 [Dorzolamide HCl],1.34,1.11,0.79,1.23,0.92,1.03
O=C1c2c(O)ccc(O)c2C(=O)c2c(NCCNCCO)ccc(NCCNCCO)c21 [Mitoxantrone 2HCl],0.99,2.17,1.08,1.41,1.07,1.33
CC12CCC(CC1=O)C2(C)C (stereo not drawn) [(+)-Camphor],0.81,0.97,0.94,0.74,0.79,0.68
O=C(O)CCCc1ccccc1 [Sodium Phenylbutyrate],0.91,0.77,0.92,1.09,0.76,0.75
CCN(CC)CCNC(=O)c1cc(Cl)c(N)cc1OC [Metoclopramide HCl],0.78,0.73,0.58,0.87,0.71,0.47
C=C(c1ccc(C(=O)O)cc1)c1cc2c(cc1C)C(C)(C)CCC2(C)C [Bexarotene],0.9,1.12,0.74,0.96,0.94,0.94
C[C@H]1COc2c(N3CCN(C)CC3)c(F)cc3c(=O)c(C(=O)O)cn1c23 [Levofloxacin hydrate],1.14,1.16,1.32,1.13,1.29,1.11
CCOC(=O)c1ccc(OC(=O)CCCCCNC(=N)N)cc1 [Gabexate Mesylate],0.84,0.95,1.03,0.99,1.14,1
CC(=O)NS(=O)(=O)c1ccc(NC(=O)c2ccccc2C(=O)O)cc1 [Phthalylsulfacetamide],0.79,0.82,0.96,0.69,0.5,0.62
NC(=O)N/N=C/c1ccc([N+](=O)[O-])o1 [Nitrofural],0.64,0.47,0.89,0.79,0.94,0.81
O=C1CC[C@@H](C(=O)N2CSC[C@H]2C(=O)O)N1 [Pidotimod],1.01,0.73,1.11,0.83,0.57,0.7
C=CC(=O)Nc1cc(Nc2nccc(-c3cn(C)c4ccccc34)n2)c(OC)cc1N(C)CCN(C)C [Osimertinib (AZD9291)],1.03,1.03,1.04,0.88,0.88,1.07
NCCCC(O)(P(=O)(O)O)P(=O)(O)O [Alendronate sodium trihydrate],0.73,1.28,1.21,0.97,1.08,0.79
CCNC1(C(N)=O)CCN(c2ncnc3c2nc(-c2ccccc2Cl)n3-c2ccc(Cl)cc2)CC1,0.9,0.69,0.92,0.91,0.88,0.86
NCCCC(N)(C(=O)O)C(F)F (stereo unspecified) [Eflornithine hydrochloride hydrate],0.63,0.46,1.04,0.73,0.58,0.72
C[C@H](NC(=O)[C@@H](Cc1ccc2ccccc2c1)NC(=O)[C@@H](C)N)C(=O)N[C@@H](Cc1c[nH]c2ccccc12)C(=O)N[C@H](Cc1ccccc1)C(=O)N[C@@H](CCCCN)C(N)=O,0.58,0.36,0.78,0.83,0.67,0.61
CCOC(=O)[C@H](CCc1ccccc1)N[C@@H](C)C(=O)N1Cc2ccccc2C[C@H]1C(=O)O [Quinapril HCl],0.86,1,1.37,1.3,1.3,1.03
C[C@@H](O)[C@H]1C(=O)N2C(C(=O)[O-])=C(SC3Cn4cnc[n+]4C3)[C@H](C)[C@H]12 (stereo partly specified) [Biapenem],0.86,1.04,0.97,1.28,1.06,1.08
CCN(CC)CC#CCOC(=O)C(O)(c1ccccc1)C1CCCCC1 (stereo unspecified) [Oxybutynin],0.56,0.41,0.97,0.64,0.79,0.69

SMILES,growth (C. auris AR-384; 1 µM),growth (C. auris AR-384; 10 µM),growth (C. auris AR-386; 1 µM),growth (C. auris AR-386; 10 µM),growth (C. auris AR-387; 1 µM),growth (C. auris AR-387; 10 µM)
N[C@@H](Cc1cc(I)c(Oc2cc(I)c(O)c(I)c2)c(I)c1)C(=O)O [Levothyroxine sodium],0.93,0.71,0.7,0.82,1.18,0.78
CCN(CC)CCOC(=O)c1ccc(N)cc1 [Procaine HCl],0.96,0.86,0.74,1,1.15,0.74
C[C@H]1[C@H](OC(=O)CCC(=O)O)O[C@@H]2O[C@@]3(C)CC[C@H]4[C@H](C)CC[C@@H]1[C@@]24OO3 [Artesunate],1.03,0.61,1.04,0.8,0.77,0.72
CC(C(=O)O)c1ccc(CC2CCCC2=O)cc1 (stereo unspecified) [Loxoprofen],0.96,0.7,0.83,0.66,0.96,0.83
CCOC(=O)[C@H](CCc1ccccc1)N[C@@H](C)C(=O)N1C(=O)N(C)C[C@H]1C(=O)O [Imidapril HCl],1.21,1.27,0.97,1.35,1.05,1.1
C[C@@H](Oc1cc(-c2cnn(C3CCNCC3)c2)cnc1N)c1c(Cl)ccc(F)c1Cl,0.69,1.07,1.16,1.06,1.02,1.02
CC(C)(S)[C@@H](N)C(=O)O [Penicillamine],1.04,1.37,0.98,1.03,1.12,1.08
N[C@@H](CSCCCO)C(=O)O [Fudosteine],0.68,1.32,0.93,1.08,1.02,1.16
CN(Cc1cnc2nc(N)nc(N)c2n1)c1ccc(C(=O)N[C@@H](CCC(=O)O)C(=O)O)cc1 [Methotrexate],0.87,1.29,1.4,0.99,0.89,0.88
O=c1[nH]cnc2[nH]ncc12 [Allopurinol Sodium],0.79,0.51,0.68,0.73,0.7,0.76
COc1ccc(/C=C/C(=O)Nc2ccccc2C(=O)O)cc1OC [Tranilast],0.71,0.53,0.71,1.24,0.75,0.65
O=C(OCC(O)CO)c1ccccc1Nc1ccnc2cc(Cl)ccc12 (stereo unspecified) [Glafenine HCl],0.95,0.82,0.7,0.7,0.63,0.58
Cc1cnc(C(=O)O)c[n+]1[O-] [Acipimox],0.72,0.84,0.82,0.63,0.66,0.99
O=C1Cc2cc(CCN3CCN(c4nsc5ccccc45)CC3)c(Cl)cc2N1 [Ziprasidone HCl],0.71,0.46,0.61,0.59,0.85,0.83
CCOC(=O)CCC(=O)O[C@H]1[C@H](O[C@@H]2[C@@H](C)[C@H](O[C@H]3C[C@@](C)(OC)[C@@H](O)[C@H](C)O3)[C@@H](C)C(=O)O[C@H](CC)[C@@](C)(O)[C@H](O)[C@@H](C)C(=O)[C@H](C)C[C@@]2(C)O)O[C@H](C)C[C@@H]1N(C)C [Erythromycin Ethylsuccinate],0.87,0.86,0.98,1.06,1.11,1.2
CN1[C@@H]2CC[C@H]1C[C@@H](OC(=O)c1c[nH]c3ccccc13)C2 [Tropisetron HCl],0.94,1.39,0.74,1.28,0.81,0.87
CCn1cc(C(=O)O)c(=O)c2cc(F)c(N3CCNC(C)C3)c(F)c21 (stereo unspecified) [Lomefloxacin HCl],1.3,1.11,0.94,1.28,1.12,1.06
CCOC(=O)N1CCC(=C2c3ccc(Cl)cc3CCc3cccnc32)CC1 [Loratadine],1.33,0.84,0.88,1.17,1.13,1.19
COc1ccccc1N1CCN(CC(O)COc2cccc3ccccc23)CC1 (stereo unspecified) [Naftopidil DiHCl],1.49,0.72,0.8,0.92,1.15,0.85
Cc1ccc(N(CC2=NCCN2)c2cccc(O)c2)cc1 [Phentolamine Mesylate],0.91,0.79,0.95,0.87,1.08,1
Cc1ccc(Nc2nccc(N(C)c3ccc4c(C)n(C)nc4c3)n2)cc1S(N)(=O)=O,0.86,0.66,0.65,0.78,0.98,0.83
Nc1nc(=O)c2c([nH]1)NCC(CNc1ccc(C(=O)N[C@@H](CCC(=O)O)C(=O)O)cc1)N2C=O (stereo partly specified) [Leucovorin Calcium Pentahydrate],0.62,0.78,0.62,1.07,0.77,0.78
CCOc1ccc(NC(C)=O)cc1 [Phenacetin],0.95,0.92,1.11,0.74,0.95,0.71

# Quoted at random: 3 entries already listed
SMILES,growth (C. auris AR-384; 1 µM),growth (C. auris AR-384; 10 µM),growth (C. auris AR-386; 1 µM),growth (C. auris AR-386; 10 µM),growth (C. auris AR-387; 1 µM),growth (C. auris AR-387; 10 µM)
COc1ccccc1N1CCN(CC(O)COc2cccc3ccccc23)CC1 (stereo unspecified) [Naftopidil DiHCl],1.49,0.72,0.8,0.92,1.15,0.85
O=C1Cc2cc(CCN3CCN(c4nsc5ccccc45)CC3)c(Cl)cc2N1 [Ziprasidone HCl],0.71,0.46,0.61,0.59,0.85,0.83
CN1[C@@H]2CC[C@H]1C[C@@H](OC(=O)c1c[nH]c3ccccc13)C2 [Tropisetron HCl],0.94,1.39,0.74,1.28,0.81,0.87
